Experimental data reported in PubChem BioAssay AID624297 (National Center for Advancing Translational Sciences (NCATS), 2012).
The whole screen tested about 340,000 compounds, of which about 6,200 (1.8%) were called active. Inconclusive means that the source gave no clear call. Such entries were picked first, then a sample of the others. Calls come from the whole dose curve; as a rule, active = well fitted activation curve with a large enough effect; inconclusive = small, poorly fitted or top-dose-only effect; inactive = no such curve, though single readings can be large or run the other way. Potencies of inconclusive entries are doubtful fits and often do not repeat.

Experiment: A quantitative high throughput screen for small molecules that induce DNA re-replication in SW480 colon adenocarcinoma cells. Note: nearly all actives have a fitted effect of over 55% in size.
Conditions: Hoechst DNA content imaging, 48 h; series mostly up to 46.1 µM
How it was run: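 First, 250 cells per well were seeded. Next, compound or vehicle (23 nL) was pinned in, plates sat 48 hr at 37 C. Finally Hoechst was added for 40 min before fluorescence scanning.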
Potency is the fitted concentration of half-maximal effect.

| SMILES | Potency |
| --- | --- |
| O=c1[nH][nH]c(-c2ccccc2O)c1C(C[N+](=O)[O-])c1ccc(Br)cc1 (stereo unspecified) | inconclusive: 29.1 µM [activator, single point] |
| CCn1c2ccccc2c2cc(CN3CCN(Cc4cc(OC)ccc4O)CC3)ccc21 | inconclusive: 16.4 µM [activator, single point] |
| N#CC1=C(N)NC(=S)C(C(N)=O)C1c1ccc(Cl)cc1Cl (stereo unspecified) | active: 16.4 µM |
| O=C(CCl)Nc1cccc(S(=O)(=O)NC2=NCCC2)c1 | inconclusive: 20.6 µM [activator, partial curve] |
| CC(NC(=O)Nc1ccc(Cl)c(Cl)c1)C(c1ccccc1)N1CCOCC1 (stereo unspecified) | inconclusive: 29.1 µM [activator, single point] |
| CCN(C1CCS(=O)(=O)C1)S(=O)(=O)c1ccc2ccccc2c1 (stereo unspecified) | inactive |
| Cc1ccc(S(=O)(=O)N2CCC(=O)N(C(COCc3cccc(C(F)(F)F)c3)C(C)C)CC2)cc1 (stereo unspecified) | inconclusive: 29.1 µM [activator, single point] |
| CCOc1ccccc1NC(=O)CCCc1ccc(OC)c(C)c1 | inconclusive: 29.1 µM [activator, single point] |
| O=C(CSCc1cccc(Br)c1)N/N=C/c1ccc2c(c1)OCO2 | inconclusive: 20.6 µM [activator, single point] |
| C/C(CS(=O)(=O)c1ccccc1)=N\O | inactive |
| COc1cccc(NC(=O)Cc2nc(-c3ccccc3)sc2-c2ccc(C)cc2)c1 | inconclusive: 18.4 µM [activator, partial curve, poor fit] |
| CC(C)N(CCC(=O)c1ccc2ccccc2c1)Cc1ccccc1 | inconclusive: 20.6 µM [activator, single point] |
| CCOc1ccccc1C1C2=C(COC2=O)Nc2cc3c(cc21)OCO3 (stereo unspecified) | active: 0.92 µM |
| COCCNC(=S)N=Nc1c(O)[nH]c2ccc([N+](=O)[O-])cc12 | inconclusive: 16.4 µM [activator, single point] |
| Cc1ccc(C(O)(C(=O)NN(C(=O)c2ccccc2)c2ccccc2)c2ccc(C)cc2)cc1 | inconclusive: 4.61 µM [activator, partial curve, poor fit] |
| COc1ccc(C2c3[nH]c4ccccc4c3C[C@H]3C(=O)N(c4ccccc4C(=O)NCCN4CCOCC4)C(=O)N23)cc1 (stereo partly specified) | inactive |
| Cc1nn(Cc2ccc(F)cc2)c(C)c1NC(=O)c1cc(-c2ccc3c(c2)OCO3)on1 | inactive |
| COc1ccc(-n2cc(C(=O)c3ccccc3O)cn2)cc1 | inconclusive: 18.4 µM [activator, single point] |
| CCOC(=O)c1ccc(C#Cc2ccc3c(c2)C(C)(C)CCS3)nc1 | inconclusive: 33.5 µM [activator, single point] |
| Clc1ccc(Nc2nc(N3CCOCC3)nc(N3CCOCC3)n2)cc1Cl | inconclusive: 1.46 µM [activator, partial curve, poor fit] |
| CCOc1ccc(OCCC(=O)OCC(=O)NCCc2ccc(S(N)(=O)=O)cc2)cc1 | inconclusive: 6.51 µM [activator, single point] |
| CCn1c(=S)sc2c(=O)n(CC(=O)Nc3ccc(OC)cc3)c(C)nc21 | inconclusive: 2.91 µM [activator, full curve, poor fit] |

| SMILES | Potency |
| --- | --- |
| CCOC(=O)c1c(NC(=O)/C=C/C(=O)O)sc(C)c1-c1ccc(Cl)cc1 | inactive |
| C=CCNC(=S)N/N=C(\C)c1ccccn1 | inconclusive: 0.116 µM [activator, full curve, poor fit] |
| CCOC(=O)C1=C(C)NC(=S)NC1c1ccco1 (stereo unspecified) | inconclusive: 29.1 µM [activator, partial curve, poor fit] |
| O=C(NCC(=O)N1CCN(Cc2ccccc2)CC1)c1ccc(Cl)cc1 | inactive |
| Cc1csc(SCC(=O)Nc2ccc(S(=O)(=O)N3CCCC3)cc2)n1 | inactive |
| COc1ccc(CCNC2=C(Cl)C(=O)N(Cc3ccccc3)C2=O)cc1OC | inconclusive: 13 µM [activator, partial curve, poor fit] |
| COc1ccccc1N1CCN(Cc2cc3c(cc2Br)OCCO3)CC1 | inactive |
| CCCCCC(=O)Nc1ccc(N2CCOCC2)c(S(=O)(=O)Nc2ccc(OC)cc2)c1 | inconclusive: 10.3 µM [activator, partial curve] |
| Cc1ccc(NC(=S)Nc2ccc(C(C)C)cc2)cc1S(=O)(=O)N1CCCCCC1 | inconclusive: 29.1 µM [activator, single point] |
| NC(=S)N/N=C/c1ccc(-c2ccc([N+](=O)[O-])cc2)o1 | inconclusive: 0.251 µM [activator, partial curve, poor fit] |
| COCCn1c(=N)c(C(=O)NCCc2ccc(OC)cc2)cc2c(=O)n3cccc(C)c3nc21 | inconclusive: 3.26 µM [activator, single point] |
| Cc1ccc(Nc2nnc(SCc3nc4ccccc4c(=O)[nH]3)s2)cc1 | inconclusive: 29.1 µM [activator, single point] |
| CCC(C)(C)c1ccc(CC(C)CN2C[C@@H](C)O[C@@H](C)C2)cc1 (stereo partly specified) | inactive |
| FC(F)(F)c1cccc(CNc2ncccc2-c2nc3cc(Cl)ccc3o2)c1 | inconclusive: 23.1 µM [activator, single point] |
| CCOC(=O)Cn1cncc1-c1ccc([N+](=O)[O-])cc1 | inconclusive: 29.1 µM [activator, single point] |
| Cc1ccc2c(c1)[C@H]1[C@H](CO2)[C@H](c2ccccc2)[C@]2(C)C(=O)Nc3cc(Cl)ccc3C(=O)N12 | inconclusive: 16.4 µM [activator, single point] |
| O=C(O)CCSc1nnc(CNc2ccc(Cl)cc2)n1Cc1ccccc1 | active: 0.231 µM |
| Cc1ccc(C)c(N2CCN(C(=O)c3ccc4nc(N5CCOCC5)sc4c3)CC2)c1 | inactive |
| COc1ccc(S(=O)(=O)N(C(C)=O)c2ccc(OC(C)=O)c3ccccc23)cc1[N+](=O)[O-] | inconclusive: 29.1 µM [activator, single point] |
| Cc1ccccc1C(=O)NC1CC2CCCC(C1)N2C(=O)Nc1ccccc1 (stereo unspecified) | inactive |
| CCOc1ccc(Nc2cc(C)nc(-n3nc(C)cc3C)n2)cc1 | inconclusive: 0.291 µM [activator, full curve, poor fit] |
| O=C(CCN1C(=O)/C(=C/c2ccccc2)SC1=S)NCCc1ccc(O)cc1 | inconclusive: 29.1 µM [activator, single point] |

3 successive compounds out of the list so far, quoted:

| SMILES | Potency |
| --- | --- |
| Cc1ccc(Nc2nnc(SCc3nc4ccccc4c(=O)[nH]3)s2)cc1 | inconclusive: 29.1 µM [activator, single point] |
| CCC(C)(C)c1ccc(CC(C)CN2C[C@@H](C)O[C@@H](C)C2)cc1 (stereo partly specified) | inactive |
| FC(F)(F)c1cccc(CNc2ncccc2-c2nc3cc(Cl)ccc3o2)c1 | inconclusive: 23.1 µM [activator, single point] |

Going on with the list.

| SMILES | Potency |
| --- | --- |
| Brc1ccc(-c2csc(/N=C/N3CCCC3)n2)cc1 | inconclusive: 23.1 µM [activator, single point] |
| Clc1ccc(OC2CCN(Cc3nc(CC4CC4)no3)CC2)cc1 | inactive |
| O=C(Nc1ccc(-c2nnn(CC(=O)N3CCN(C(=O)c4ccco4)CC3)n2)cc1)c1ccc(F)cc1 | inconclusive: 16.4 µM [activator, partial curve] |
| Cn1cccc1C(=O)NCC(c1ccco1)N1CCCCC1 (stereo unspecified) | inconclusive: 20.6 µM [activator, partial curve, poor fit] |
| Cc1cc(N/N=C/c2ccccc2Cl)nc(NCc2ccccc2)n1 | inconclusive: 29.1 µM [activator, single point] |
| CCOC(=O)c1sc2nc3c(cc2c1N)C(=O)CC(C)(C)C3 | inconclusive: 18.4 µM [activator, single point] |
| COc1cccc(NC(=O)N2CCCC2C(=O)Nc2ccc3c(c2)OCCO3)c1 (stereo unspecified) | inconclusive: 25.9 µM [activator, single point] |
| C=CCC1(CC=C)CCCN1C(=O)CC1C(=O)NCCN1Cc1cc(OC)cc(OC)c1 (stereo unspecified) | inconclusive: 32.6 µM [activator, partial curve, poor fit] |
| CN(C)CC(C)(C)NS(=O)(=O)c1ccc(Cl)cc1 | inconclusive: 20.6 µM [activator, single point] |
| Cc1cccc(C2=NN(c3ccccc3)[C@@H](C(=O)N3CCOC3=O)[C@@H]2c2ccc([N+](=O)[O-])cc2)c1 | inactive |
| Nn1cnc2c(c1=O)C1(CCCCC1)Cc1ccccc1-2 | inconclusive: 29.1 µM [activator, single point] |
| COc1ccc(S(=O)(=O)N2CCOCC2)cc1NC(=O)CSc1nc(C)c(C)c(C)n1 | inactive |
| c1ccc2c(c1)CCN(C1CCCCC1)C2 | inconclusive: 29.1 µM [activator, single point] |
| O=C(N/N=C/c1ccc([N+](=O)[O-])cc1)c1cc(C2CC2)nc2ccccc12 | inconclusive: 23.1 µM [activator, single point] |
| OCC1(CCOc2ccccc2)CCN(Cc2cn[nH]c2-c2ccc(F)cc2)CC1 | inconclusive: 23.1 µM [activator, partial curve, poor fit] |
| O=Cc1c(-c2ccccc2)cc2oc3ccccc3cc1-2 | inactive |
| COc1ccccc1-c1cc(C(F)(F)F)nc(S(C)(=O)=O)n1 | inconclusive: 2.59 µM [activator, full curve, poor fit] |
| COc1ccc(C2CC(c3ccccc3)=NN2c2ccc(S(N)(=O)=O)cc2)cc1OC (stereo unspecified) | active: 23.1 µM |
| Cc1ccccc1S(=O)(=O)Nc1ncc(C(F)(F)F)cc1Cl | inconclusive: 0.517 µM [activator, full curve, poor fit] |
| Cc1cc(C(=O)OCC(=O)NCc2ccc(Cl)cc2)c(C)o1 | inconclusive: 2.06 µM [activator, partial curve, poor fit] |
| CN1CCN(c2ccc(NC(=S)NC(=O)c3cccc4c(Cl)cccc34)cc2)CC1 | active: 20.6 µM |
| CCOC(=O)c1cc2c(=O)n3ccccc3nc2n(CC2CCCO2)c1=NC(C)=O (stereo unspecified) | inconclusive: 18.4 µM [activator, single point] |
